{"source": "PubChem BioAssay AID540276", "about": "(National Center for Advancing Translational Sciences (NCATS), 2011)", "note": "Screen size: about 300,000 compounds; about 5,400 (1.8%) were called active. The inconclusive results got no clear call from the source; some entries with a clear call stand among them for comparison. Calls follow the shape of the full dose curve; tested in HEK293 cells. Where the call is inconclusive, the potency comes from a doubtful curve fit. % is scaled to controls: 0 for no effect and ±100 for the full control effect; potency is read from the fitted curve at half-maximal effect."}
{"assay": "qHTS for inhibitors of binding or entry into cells for Marburg Virus", "conditions": "Marburg virus pseudotyped entry inhibition, cell reporter; activity change, negative = inhibition: at 37.8 µM (top of the series) unless noted"}
{"smiles": "CS(=O)(=O)Nc1ccccc1Oc1ccccc1", "activity change, negative = inhibition": "inactive: -1.25%"}
{"smiles": "COc1cccc(C(=O)c2sc3nc(-c4ccccc4)cc(C(F)(F)F)c3c2N)c1", "Potency": "inconclusive: 20 µM [inhibitor, partial curve, poor fit]"}
{"smiles": "COc1ccc2cc(N3CCCC3=O)ccc2c1", "activity change, negative = inhibition": "inactive: -2.96%"}
{"smiles": "O=C1c2cnccc2CN1Cc1ccccc1", "activity change, negative = inhibition": "inactive: 2.19%"}
{"smiles": "COC(=O)c1ccccc1NC(=O)Cn1c(=O)n(Cc2ccc(C(=O)NCc3ccc4c(c3)OCO4)cc2)c(=O)c2ccccc21", "activity change, negative = inhibition": "inactive: 26.5% [at 46.1 µM]"}
{"smiles": "O=C1C2C(C(=O)N1/N=C/c1cc(Br)cc([N+](=O)[O-])c1O)C1C=CC2C12CC2", "note": "(stereo unspecified)", "activity change, negative = inhibition": "inactive: 9.39%"}
{"smiles": "COc1ccccc1N1CCN(C(c2ccccc2Cl)c2nnnn2C(C)(C)C)CC1", "note": "(stereo unspecified)", "Potency": "inconclusive: 14.1 µM [inhibitor, partial curve, poor fit]"}
{"smiles": "CN1C(c2ccc(F)cc2)=CS/C1=C(/C#N)c1nnc(N2CCOCC2)n1-c1ccccc1", "Potency": "inconclusive: 1.16 µM [inhibitor, single point]"}
{"smiles": "Cc1nc2ccc(NC(=O)c3cccs3)cc2s1", "activity change, negative = inhibition": "inactive: 12.8% [at 46.1 µM]"}
{"smiles": "COc1ccc(NC(=O)c2cc(F)cc(F)c2)cc1S(=O)(=O)N1CCCCC1", "Potency": "inconclusive: 1.26 µM [inhibitor, partial curve, poor fit]"}
{"smiles": "CCC1CCCCN1CCCNC(=O)c1cc2c(Cl)nc3ccccc3c2s1", "note": "(stereo unspecified)", "Potency": "inconclusive: 7.08 µM [inhibitor, partial curve, poor fit]"}
{"smiles": "CCOc1ccccc1Nc1cc2n(c(=O)n1)CCc1cc(OC)c(OC)cc1-2", "Potency": "inconclusive: 3.16 µM [inhibitor, full curve]"}
{"smiles": "Cc1nn(-c2ccccn2)c(C)c1Oc1ccccc1O", "activity change, negative = inhibition": "inactive: 9.97%"}
{"smiles": "CCNc1oc(-c2ccc(OC)cc2)nc1S(=O)(=O)c1ccc(Br)cc1", "activity change, negative = inhibition": "inactive: -0.601%"}
{"smiles": "CCOC(=O)c1c(NC(C)=O)sc2c1CCC(C=O)=C2Sc1ccccc1", "Potency": "inconclusive: 29.1 µM [inhibitor, single point]"}
{"smiles": "CCN1C(=O)N[C@@H](c2ccco2)C(C(=O)OC)=C1C", "Potency": "inconclusive: 0.0841 µM [activator, full curve, poor fit]"}
{"smiles": "O=C1c2ccccc2C(O)N1c1ccc(Cl)cc1", "note": "(stereo unspecified)", "activity change, negative = inhibition": "inactive: 0.227%"}
{"smiles": "Cc1c(Cl)c([N+](=O)[O-])nn1Cc1ccc(C(=O)N/N=C\\c2cccc(Br)c2)o1", "Potency": "inconclusive: 17.8 µM [inhibitor, single point]"}
{"smiles": "COc1ccc(CCNC(=O)C(C)c2ccc([N+](=O)[O-])cc2)cc1", "note": "(stereo unspecified)", "Potency": "inconclusive: 3.16 µM [inhibitor, single point]"}
{"smiles": "COC(=O)Cc1c(O)ccn(Cc2ccc3c(c2)OCO3)c1=O", "Potency": "inconclusive: 5.62 µM [inhibitor, single point]"}
{"smiles": "Cc1ccc(N(CC(=O)N2CCCC2)S(C)(=O)=O)cc1C", "activity change, negative = inhibition": "inactive: -12.6%"}
{"smiles": "Cc1c(C(=O)N2c3ccccc3Sc3ccccc32)cccc1[N+](=O)[O-]", "Potency": "inconclusive: 0.398 µM [activator, partial curve, poor fit]"}
{"smiles": "Cc1cccc(C=Nc2ccccc2C(N)=O)c1", "Potency": "inconclusive: 3.26 µM [inhibitor, single point]"}
{"smiles": "COc1ccccc1C(=O)NC1CC(C)(C)NC(C)(C)C1", "activity change, negative = inhibition": "inactive: -3.77% [at 46.1 µM]"}
{"smiles": "Cc1ccc2nc(-c3ccc(O)cc3)c(Nc3ccc4c(c3)OCCO4)n2c1", "activity change, negative = inhibition": "inactive: 21.8% [at 46.1 µM]"}
{"smiles": "Cc1cc(C)c2cc(CN(Cc3cccnc3)C(=O)c3ccc(F)cc3)c(Cl)nc2c1", "Potency": "inconclusive: 18.3 µM [inhibitor, single point]"}
{"smiles": "CC(C)Cn1c(=O)c2ccccc2n2c(CCC(=O)N3CCN(c4ccccc4F)CC3)nnc12", "activity change, negative = inhibition": "inactive: -0.434% [at 46.1 µM]"}
{"smiles": "CCCn1c(-c2ccc(S(=O)(=O)N3CCOCC3)cc2)csc1=Nc1ccc(OCC)cc1", "activity change, negative = inhibition": "inactive: 10.6% [at 46.1 µM]"}
{"smiles": "CCOC(=O)c1c(CN(CC)CC)n(-c2ccccc2)c2ccc(O)cc12", "Potency": "inconclusive: 12.6 µM [inhibitor, partial curve, poor fit]"}
{"smiles": "Cc1ccsc1/C=C(\\C#N)C(=O)NCc1cccnc1", "Potency": "inconclusive: 1 µM [inhibitor, single point]"}
{"smiles": "CCCCOc1ccc(C(=O)CCN2CCOCC2)cc1", "Potency": "inconclusive: 11.2 µM [inhibitor, partial curve, poor fit]"}
{"smiles": "COc1nnc(-c2ccc(N3CCOCC3)c(NC(=O)c3ccc(C)cc3)c2)c2ccccc12", "Potency": "inconclusive: 20 µM [inhibitor, partial curve, poor fit]"}
{"smiles": "FC(F)(F)c1nc(NCc2cccnc2)c2ccccc2n1", "activity change, negative = inhibition": "inactive: -14.3% [at 46.1 µM]"}
{"smiles": "COc1cc(OC)cc(C(=O)Nc2ccc3nc(N4CCCCC4)cc(C)c3c2)c1", "activity change, negative = inhibition": "inactive: -19.6% [at 46.1 µM]"}
{"smiles": "N#CC1=C(SCC(N)=O)NC2=C(C(=O)c3ccccc32)C1c1ccc(Cl)cc1", "note": "(stereo unspecified)", "Potency": "inconclusive: 29.1 µM [inhibitor, single point]"}
{"smiles": "COc1ccc(Nc2nnc(SCC(=O)N3CCCC3)s2)cc1", "activity change, negative = inhibition": "inactive: 0.476% [at 46.1 µM]"}
{"smiles": "Cc1ccc(S(=O)(=O)N2CCN(C(=O)CNC(=O)c3ccc(Cl)cc3)CC2)cc1", "Potency": "inconclusive: 3.16 µM [inhibitor, full curve, poor fit]"}
{"smiles": "COc1ccc(/C=N/NC(=O)/C(=C/c2ccccc2)CCO)cc1", "activity change, negative = inhibition": "inactive: -0.468%"}
{"smiles": "CC(C)CC(C(=O)NC1CCCCC1)N(Cc1ccccc1)C(=O)c1snc(C(N)=O)c1N", "note": "(stereo unspecified)", "Potency": "inconclusive: 12.6 µM [inhibitor, partial curve, poor fit]"}
{"smiles": "COc1ccc(-c2nnc(SCC(=O)N3CCCC(C)C3)o2)c(OC)c1", "note": "(stereo unspecified)", "activity change, negative = inhibition": "inactive: -3.18%"}
{"smiles": "N#Cc1c(N)oc(-c2ccco2)c1-c1ccco1", "Potency": "inconclusive: 14.1 µM [activator, partial curve, poor fit]"}
{"smiles": "CN(C(=O)CSc1nnc(-c2ccccc2)c(-c2ccccc2)n1)C1CCS(=O)(=O)C1", "note": "(stereo unspecified)", "activity change, negative = inhibition": "inactive: 16%"}
{"smiles": "C=C(C)COc1ccc(-c2n[nH]c(C)c2-c2ccc(Br)cc2)c(O)c1", "Potency": "inconclusive: 8.2 µM [inhibitor, partial curve]"}
{"smiles": "Cc1ccc(NS(=O)(=O)c2ccc(C)c(NC(=O)COc3ccc4ccccc4c3)c2)c(C)c1", "Potency": "active: 11.2 µM"}
{"smiles": "COc1ccc(OC)c(NC(=O)Cn2c(=O)n(Cc3ccccc3)c(=O)c3ccccc32)c1", "Potency": "inconclusive: 17.8 µM [inhibitor, single point]"}
{"smiles": "CCc1ccc(OCCOCC(O)CNC2CCCC2)cc1", "note": "(stereo unspecified)", "Potency": "inconclusive: 10 µM [inhibitor, partial curve, poor fit]"}
